Data from paper PMC12040169 (PLOS Biology, 2025).
Some of the results follow.

These molecules were tested on T1, CTL2-GFP (C. trachomatis L2/434/Bu, GFP-expressing). Settings: bulk GFP, single well; 28.5 h, 10 µM; inhibitor.
T1 construct: L2/434/Bu, GFP-expressing
Parameters: species or system HeLa; Intracellular C. trachomatis growth in HeLa cells, bulk GFP fluorescence relative to DMSO
`O=C(O)CC1Sc2ccccc2NC1=O` (stereo not drawn) [CBK261308] was tested, and the “% of control remaining” value was 113.505%.
With `COC(=O)c1nn(C(=O)N(C)C)c(C)c1Br` [CBK005077] the “% of control remaining” value was 126.203%.
With `CC(C)(C)OC(=O)COc1cc2oc(=O)cc(-c3ccccc3)c2cc1Cl` [CBK263729] the “% of control remaining” value was 100%.
In the case of `CN1CCN(c2ccc([N+](=O)[O-])c(NCc3ccccc3)c2)CC1` [CBK042199], the “% of control remaining” value is reported as 107.121%.
`CS(=O)(=O)Nc1nnc(SCC(=O)Nc2cccc([N+](=O)[O-])c2)s1` [CBK045536] was tested, and the “% of control remaining” value was 117.548%.
In the case of `O=C(CC1=C(O)C(=O)c2ccccc2C1=O)c1ccccc1` [CBK262002], the “% of control remaining” value is reported as 100.049%.
`CN(CCO)c1ccc(C(=O)N2CCC(N3CCOCC3)CC2)cn1` [CBK306899] was tested, and the “% of control remaining” value was 134.729%.
For `COc1ccc(Br)cc1C(=O)Nc1cc(-c2nc3ccccc3[nH]2)ccc1Cl` [CBK264112], the “% of control remaining” value was 100%.
For `Cc1ccc(Nc2nc(N/N=C/c3ccccc3)nc(N3CCC(Cc4ccccc4)CC3)n2)cc1` [CBK262296], the “% of control remaining” value was 110.54%.
For `O=C(CCn1c(C(F)F)cc2cccnc21)NCc1cccnc1` [CBK285066], the “% of control remaining” value was 103.296%.
`O=C(CCn1c(C(F)F)cc2cccnc21)N1CCOCC1` [CBK284956] was tested, and the “% of control remaining” value was 112.57%.
`CC(=O)Nc1cccc(C(=O)N2CCN(Cc3ccc4c(c3)OCO4)CC2)c1` [CBK270031] was tested, and the “% of control remaining” value was 106.348%.
With `CCCCSc1nc(N)cc(N2CCC(N3CCOC3=O)CC2)n1` [CBK306974] the “% of control remaining” value was 97.9818%.
In the case of `N#CC1=C(N)Oc2cc(N)ccc2C1c1ccc(-c2ccccc2)cc1` (stereo not drawn) [CBK261605], the “% of control remaining” value is reported as 115.133%.
In the case of `CN(C)C(=O)c1ccc(-c2ccc3c(c2)COC(C2CCN(C(=O)CC4CCCCC4)CC2)O3)cc1` (stereo not drawn) [CBK149763], the “% of control remaining” value is reported as 87.4777%.
`Cc1cc(NC(=O)CCCN2C(=O)c3cccc4cccc(c34)C2=O)n(-c2ccccc2)n1` [CBK265874] was tested, and the “% of control remaining” value was 101.506%.
With `COc1cc(CN2CCN(C/C=C/c3ccccc3)CC2)cc(Br)c1O` [CBK261582] the “% of control remaining” value was 100%.
For `CC(NS(=O)(=O)c1ccccc1Cl)C(=O)N1CCCC1` (stereo not drawn) [CBK305994], the “% of control remaining” value was 80.4111%.
For `Oc1ccccc1/C=N/c1ccc(Cc2ccc(/N=C/c3ccccc3O)c(O)c2)cc1O` [CBK261156], the “% of control remaining” value was 102.22%.
For `O=C(NC(Cc1ccccc1)C(=O)O)c1ccc(C#CC2(O)CCCCC2)cc1` (stereo not drawn) [CBK267702], the “% of control remaining” value was 140.691%.
With `OC(CNCCNc1nccc(C(F)(F)F)n1)Cn1ccc2ccccc21` (stereo not drawn) [CBK074642] the “% of control remaining” value was 110.059%.
For `COc1ccc(-c2nn(CC(=O)O)cc2/C=C/c2cc(C(F)(F)F)nc(=O)[nH]2)cc1` [CBK287128], the “% of control remaining” value was 138.57%.
In the case of `CN(C)CCOC(=O)c1ccc(S(=O)(=O)N(C)C)o1` [CBK264273C], the “% of control remaining” value is reported as 105.044%.
With `COc1ccc(O[C@@H]2CCCC[C@@H]2N2CCCCC2)cc1` [CBK015661C] the “% of control remaining” value was 100%.
In the case of `C(=C\c1nccnc1OCCc1cccs1)/c1ccccc1` [CBK106873], the “% of control remaining” value is reported as 122.727%.
`Cc1ccc2[nH]cc(CCN3CCC4(CC3)NCCc3c4[nH]c4ccc(OCc5ccccc5)cc34)c2c1` [CBK039342] was tested, and the “% of control remaining” value was 126.109%.
`COCCN1CCn2c(nc3cc(NC(=O)c4ccco4)ccc32)C1` [CBK267990] was tested, and the “% of control remaining” value was 123.991%.
With `Nc1ccc2c(O)c(C(=O)NCc3ccc(Cl)cc3)c(=O)[nH]c2c1` [CBK017557] the “% of control remaining” value was 125.284%.
`O=c1c2c([nH]c3nc(COc4ccccc4)nn13)CCC2` [CBK288188] was tested, and the “% of control remaining” value was 115.958%.
In the case of `O=C(O)CCSc1nc2ccccc2nc1N1CCCC1` [CBK107862], the “% of control remaining” value is reported as 190.853%.
For `COc1ccccc1CN1CCC(Cc2ccccc2-c2ccc(C)cc2C)(C(=O)O)CC1` [CBK286419], the “% of control remaining” value was 122.906%.
`COc1ccnc(N2CCN(C(=O)CCc3ccsc3)CC2)n1` [CBK306350] was tested, and the “% of control remaining” value was 85.4244%.
With `Cc1ccc(Nc2nc(CSc3nnc(-c4ccccc4)o3)cs2)cc1` [CBK268455] the “% of control remaining” value was 132.656%.
`Cc1[nH]c2ccccc2c1C(=O)C(=O)Nc1sc(C)c(C)c1C#N` [CBK270038] was tested, and the “% of control remaining” value was 127.057%.
In the case of `COc1cccc(C(=O)Nc2ccc(-c3noc(-c4ccccn4)n3)cc2)c1` [CBK270055], the “% of control remaining” value is reported as 105.246%.
For `O=C(Nc1ccc(-c2ccccc2C(F)(F)F)s1)C(F)(F)F` [CBK099942], the “% of control remaining” value was 91.2636%.
`Fc1cccc(F)c1OCCOc1nc(N2CCNCC2)ccc1C(F)(F)F` [CBK003977A] was tested, and the “% of control remaining” value was 24.1924%.
`NC(=O)c1sc2nc(-c3cccnc3)ccc2c1N` [CBK023645] was tested, and the “% of control remaining” value was 89.4318%.
`CCCN(C)Cc1ccc(-c2cn(CC(=O)NCc3ccc(OCC(F)F)cc3)nn2)cc1` [CBK166365] was tested, and the “% of control remaining” value was 143.514%.
In the case of `CCc1cc(NC[C@@H](O)CO)nc(-c2cc(F)c(F)c(F)c2)n1` [CBK132879], the “% of control remaining” value is reported as 114.685%.
For `CCc1n[nH]c(C(=O)N/N=C/c2cccnc2)c1C` [CBK263386], the “% of control remaining” value was 118.677%.
With `CC(=O)Nc1ccc(-c2ccc(C(=O)N3CCN(C(=O)OCc4ccccc4)CC3)cn2)cc1` [CBK160185] the “% of control remaining” value was 94.5773%.
In the case of `Cc1ccc(C)c(C2CCCN2C(=O)C2CN(C(=O)C3CCN(C)CC3)C2)c1` (stereo not drawn) [CBK286022], the “% of control remaining” value is reported as 99.4732%.
In the case of `Cc1ccc(/C=N\NC(=O)c2cccc(Cl)c2)s1` [CBK016469], the “% of control remaining” value is reported as 88.9226%.
In the case of `Cc1[nH]c(=O)[nH]c(=O)c1CC(=O)N1CCc2ncc(Cl)cc2C1` [CBK286302], the “% of control remaining” value is reported as 116.026%.
For `O=C(CNC(=O)c1ccc(OC(F)F)cc1)NCCCn1cccn1` [CBK297789], the “% of control remaining” value was 113.704%.
`CN(C)c1ccc(-c2nccnc2NS(=O)(=O)Cc2cccc(Cl)c2)cc1` [CBK050787] was tested, and the “% of control remaining” value was 130.799%.
With `CC(=O)Nc1ccc(OCC(O)Cn2cnc3ncccc3c2=O)cc1` (stereo not drawn) [CBK304541] the “% of control remaining” value was 126.779%.
For `CC(Oc1ccccc1)c1nnc(SCC(=O)Nc2cc(Cl)c(Cl)cc2Cl)n1C` (stereo not drawn) [CBK266262], the “% of control remaining” value was 159.572%.
With `CCN(CC)C(=O)CN1C2CCC1CC(O)(c1ccco1)C2` (stereo not drawn) [CBK284094] the “% of control remaining” value was 113.293%.
In the case of `CC1Cc2cc(CCC(=O)N3CCCc4c(cnn4C)C3)ccc2O1` (stereo not drawn) [CBK282882], the “% of control remaining” value is reported as 113.954%.
In the case of `O=C(CN(Cc1ccc(Cl)cc1Cl)S(=O)(=O)c1ccccc1)Nc1c(F)cccc1F` [CBK265801], the “% of control remaining” value is reported as 115.017%.
In the case of `Cc1ccnn1CCC(=O)N1CCn2cc(C(F)(F)F)nc2C1` [CBK283912], the “% of control remaining” value is reported as 93.2672%.
`COC(=O)c1ccc(-c2ccc(OC)c(OC)c2)nc1` [CBK160175T] was tested, and the “% of control remaining” value was 130.967%.
`COc1ccc2c(c1)C1(CC(=O)N(C)C1=O)C(=O)N2CC(=O)O` (stereo not drawn) [CBK076118] was tested, and the “% of control remaining” value was 100%.
In the case of `O=C(Cc1c[nH]c2ccccc12)NC1CCCC1` [CBK200238], the “% of control remaining” value is reported as 139.813%.
`Cc1cc(C)n(CC(C)NC(=O)c2cc(C(F)(F)F)nn2C)n1` (stereo not drawn) [CBK281671] was tested, and the “% of control remaining” value was 100.245%.
`COC(=O)CCc1ccc(S(=O)(=O)N2CCN(Cc3ccc(O)c(F)c3)CC2)cc1` [CBK062813] was tested, and the “% of control remaining” value was 104.447%.
In the case of `CS(=O)(=O)N1CCc2cc(-c3csc(N)n3)ccc21` [CBK304596], the “% of control remaining” value is reported as 132.812%.
For `Cc1c(CN2CCCC(c3cc4cccnc4[nH]3)C2)cnn1C` (stereo not drawn) [CBK284683], the “% of control remaining” value was 78.2213%.
`CSc1nnc(-c2sccc2OCc2ccc(Cl)cc2Cl)n1C` [CBK067693] was tested, and the “% of control remaining” value was 82.9905%.
In the case of `Cc1[nH]c(=O)[nH]c(=S)c1C(=O)NCc1cccc(Cl)c1C` [CBK115493], the “% of control remaining” value is reported as 91.1866%.
`CCN(CC)C(=O)c1ccc(NS(=O)(=O)c2ccc(-c3ccccc3)cc2)cc1` [CBK034395] was tested, and the “% of control remaining” value was 86.1547%.
With `c1ccc2oc(CN3Cc4nc[nH]c4C[C@H]3c3nc(-c4ccc5c(c4)OCO5)no3)cc2c1` [CBK288998] the “% of control remaining” value was 106.648%.
`Cc1oc(CSCc2cc(C(=O)O)c(C)o2)cc1C(=O)O` [CBK264291] was tested, and the “% of control remaining” value was 131.745%.
In the case of `CC(C)c1ccc(N2C(=O)[C@@H]3C[C@@H](NC(=O)c4ccnc(Cl)c4)CCN3C2=O)cc1` [CBK289544], the “% of control remaining” value is reported as 121.128%.
In the case of `O=C(Nc1cccc2c(NC(=O)C3CC3c3ccccc3)cccc12)C1CC1c1ccccc1` (stereo not drawn) [CBK260911], the “% of control remaining” value is reported as 106.306%.
With `Cc1ccc(S(=O)(=O)N2CCN(C(=O)CSc3nnc4sc5ccccc5n34)CC2)cc1` [CBK265961] the “% of control remaining” value was 100%.
With `Cc1ccnc(N2CCOC3(CCCC3)C2)n1` [CBK304794] the “% of control remaining” value was 112.501%.
With `O=[N+]([O-])c1ccc(Oc2cccc3cccnc23)c(F)c1` [CBK002750] the “% of control remaining” value was 105.931%.
For `CC(=O)N1CCN2C(=O)c3cc(-c4ccc5c(c4)OCO5)ccc3NC(=O)[C@H]2C1` [CBK289597], the “% of control remaining” value was 165.922%.
`N#Cc1ccsc1NS(=O)(=O)c1ccc(Cl)c(Cl)c1` [CBK034735] was tested, and the “% of control remaining” value was 129.28%.
In the case of `CC(Cn1cncn1)NC(=O)c1cccc(S(=O)(=O)NC2CCCC2)c1` (stereo not drawn) [CBK304209], the “% of control remaining” value is reported as 116.845%.
In the case of `N#CCCN(C(=O)NCc1ccc(Cl)c(Cl)c1)C1CCCCC1` [CBK156349], the “% of control remaining” value is reported as 115.766%.
With `CS(=O)(=O)Nc1ccc(C(=O)Nc2ccc(S(=O)(=O)Nc3nccs3)cc2)cc1` [CBK267856] the “% of control remaining” value was 55.7613%.
With `COc1ccc(S(=O)(=O)N2CCN(c3ccccc3F)CC2)cc1` [CBK070377] the “% of control remaining” value was 112.951%.
For `Cn1ccnc1C(NC(=O)C1CCCC1)c1ccc(F)c(F)c1` (stereo not drawn) [CBK283784], the “% of control remaining” value was 108.081%.
In the case of `Cn1c2c(c3ccccc31)CCOC21CCN(CC2CCCCO2)CC1` (stereo not drawn) [CBK040649], the “% of control remaining” value is reported as 163.92%.
